± gives the standard deviation. This is a selection; strong and weak results do not stand in their true shares. Many of these values have a large error.
Each sequence was assayed on EfPiwi piRISC loaded with piRNA #1 (26 nt) (assay: pre-steady-state target cleavage rate (min^-1); guide: piRNA #1 5'p-UGAGGUAGUAGGUUGUAUAGUAUCCA; MIWI and MILI are mouse PIWI proteins and EfPiwi is from a freshwater sponge; tags in brackets are library labels; higher = faster piRNA-guided slicing of the target). Details: auxiliary factor: 500 nM Ephydatia muelleri Gtsf1.
How it was run: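 Cleave-'n-Seq: 1 nM active affinity-purified piRISC with one synthetic guide and 0.1 nM transcribed, DNA-blocked target RNA library were mixed, with or without 500 nM GTSF1 partner protein, in HEPES–potassium acetate buffer at 33 °C for 0–8 or 0–960 min. Uncleaved targets were sequenced and normalised to depth and to weakly complementary targets, three trials were pooled, and k3 was capped at 0.0001 min^-1. The pre-steady-state cleavage rate was fitted […].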

Sequence	pre-steady-state target cleavage rate
GGAGACCUAAUUAUACAACCUACUACCUCA	0.0144 ± 0.0065
GGAGACGAUACUAUACAACCUGCUACCUCA	0.128 ± 0.046
GGAGAGCAUACUAUACAACCUACUACCUGA	0.00603 ± 0.0027
GGAGAGCAUACUAUACAACCUUCUACCUCA	0.00445 ± 0.0027
GGAGACCUUACUAUACAUCCUACUACGUCA	0.00307 ± 0.0033
GGAGACCUAUGAAAUACAACCUACUACCUCA	0.00445 ± 0.0038
GGAGUGGAUAGUAUACAACCUACUAGCUCA	0.00291 ± 0.0018
GGAGACGUUACUAAACAACCUACUACCUCA	0.00366 ± 0.0038
GGAGUGGAUAGUAUACAAGCUACUACCUCA	0.00224 ± 0.0021
GGAGACCUAUCUAUACACACCUACUACCUCA	0.00187 ± 0.0051
GGAGAGGAUAGUAUACAACCUUCUACCUCA	0.00304 ± 0.0024
GGAGACCAUUCUAUACAACCUAGUACCUCA	0.00433 ± 0.0024
GGAGACCUUACUAUACAACGUACUAGCUCA	0.00143 ± 0.0031
GGAGACCUAUCUAUACAACCUACUUCCACA	0.000377 ± 0.0069
GGAGACCUAUGAUAUGUUGCUACCUACCUCA	0.000243 ± 0.017
GGAGACGAUAUCUAUACAACCUACUACCUCA	0.00603 ± 0.0041
GGAGACCUAUGAUAUGUUGCUACUACAUCA	0.00137 ± 0.0052
GGAGACCUAUCUAUACAUCCUACUACCUGA	0.00459 ± 0.0036
GGAGACCUUACUAUAGAAGCUACUACCUCA	0.00234 ± 0.0054
GGAGACCAUACUAUACAACGUACUACCUCA	0.00482 ± 0.0015

Rewritten comma-delimited: entries from further up.
Sequence,pre-steady-state target cleavage rate
GGAGACGAUAUCUAUACAACCUACUACCUCA,0.00603 ± 0.0041
GGAGACCUAUCUAUACAUCCUACUACCUGA,0.00459 ± 0.0036

Continuation:

Sequence	pre-steady-state target cleavage rate
GGAGACCUAUCUAUACAACGUACUACCACA	0.00343 ± 0.0031
GGAGACCUUACUAUACAACCUACUACGUCA	0.00584 ± 0.0027
GGAGACCUAUCUAGACAACCUACUACCUCA	0.00289 ± 0.0042
GGAGACCUAUCUUAACAACCUACUACCUCA	0.0035 ± 0.0043
GGAGACCUUACUUUACUACCUACUACCUCA	0.00277 ± 0.0046
GGAGACCUAACUAUACAACCUACUACCGCA	0.00244 ± 0.0036
GGAGACCUUACUUUACAAGCUACUACCUCA	0.00243 ± 0.0047
GGAGACCUAUGUAUACAUCCUUCUACCUCA	0.000959 ± 0.0051
GGAGACCUUACUAUACAACCUACUAACCUCA	0.00393 ± 0.0038
GGAGACCUAUGAUAUCAACCUAGUAGCUCA	0.000563 ± 0.011
GGAGACCUAUGAUAUGUUCCUACUACCACA	0.000129 ± 0.014
GGAGUGGAUACUAUUGAACCUACUACCUCA	0.000328 ± 0.0097
GGAGACCUAACUAUACAAGCUACAACCUCA	0.000697 ± 0.0039
GGAGACGAUACUUUACUACCUACUACCUCA	0.00186 ± 0.0035
GGAGACGAUAGUAUUCAACCUACUACCUCA	0.00179 ± 0.0051
GGAGACGAUACAAUACAACCUACUACGUCA	0.00361 ± 0.0032
GGAGACCUUACUAUACUACCUACUACCACA	0.00207 ± 0.0061
GGAGAGGAUACUAUAGAAGCUACUACCUCA	0.00238 ± 0.0021
GGAGAGGAUACUUUACAACCUACUACCUCA	0.00667 ± 0.0036
GGAGACCUAACUAUACAUCCUACUACCUGA	0.00344 ± 0.0029

From the supplement of paper PMC10338343
